Results: PubChem BioAssay (Tox21)
“And” between values parts separate entries of the source, which are not always exact repeats. Equal values may be shown once. Inconclusive means that the source gave no clear call. Such entries were picked first, then a sample of the others. Potencies beside an inconclusive call are fits to weak or partial responses and may not hold up. More than one record can exist for a structure, and the calls need not agree. The source made the active and inactive calls. Calls follow the shape of the dose curve; as a rule, active = well fitted cell-killing curve with a large enough effect in the repeat runs; inconclusive = weak or mixed curves, or effect the other way; inactive = flat fitted curve, though single readings scatter.

Test: cAMP Responsive Elements (CRE) small molecule agonists, cell-based qHTS assay: qHTS cell viability counter screen (AID 2060914); also: nearly all actives have a fitted effect of over 50% in size
Conditions: CRE-bla HEK293T viability, CellTiter-Glo luminescence, 5 h; series mostly up to 92.4 µM; activity change, negative = cytotoxicity: at the top concentration
Method in brief: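 HEK 293T CRE-bla; DMEM + 10% dialyzed FBS, 25 mM HEPES; 18 h pre-incubation; compound 3 h, 37 °C/5% CO2; CellTiter-Glo added after reporter read; luminescence after 30 min RT.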
% is scaled to controls: 0 for no effect and ±100 for the full control effect; potency is read from the fitted curve at half-maximal effect.

| Compound | Potency | activity change, negative = cytotoxicity |
| --- | --- | --- |
| CC1CC(CC2CCC(N)C(C)C2)CCC1N (stereo not given) | inconclusive: 27.8 µM [cytotoxic, single point] |  |
| O=[N+]([O-])c1ccccc1-c1ccccc1 |  | inactive: 8.41% |
| CC(=O)O[C@H]1CC[C@@]2(C)C(=CC[C@@H]3[C@@H]2CC[C@]2(C)C(=O)CC[C@@H]32)C1 | inconclusive: 68.6 µM [cytotoxic, partial curve, poor fit] |  |
| CNC(=O)O/N=C(\SC)C(=O)N(C)C | inconclusive: 74.8 µM [rising, single point] |  |
| COP(N)(=S)Oc1ccccc1C(=O)OC(C)C (stereo not given) | inconclusive: 27.3 µM [cytotoxic, single point] |  |
| NC(=O)O | inconclusive: 0.545 µM [cytotoxic, single point] |  |
| ClC=C(Cl)Cl | inconclusive: 61.9 µM [cytotoxic, partial curve, poor fit] |  |
| CCCCOC(=O)c1ccccc1C(=O)OCCCC | inactive |  |
| CC(C)=CC1C(C(=O)OCN2C(=O)C3=C(CCCC3)C2=O)C1(C)C (stereo not given) | inconclusive: 0.611 µM [cytotoxic, single point] |  |
| CC(C)c1c(CN(C)C(C)Cc2ccccc2)n(C)n(-c2ccccc2)c1=O (stereo not given) |  | inactive: 0.555% [at 42.5 µM] |
| CC1(c2ccc(Oc3ccccc3)cc2)OC(=O)N(Nc2ccccc2)C1=O (stereo not given) | inconclusive: 1.23 µM [cytotoxic, partial curve, poor fit] |  |
| CC(C)(C)C(O)(CCc1ccc(Cl)cc1)Cn1cncn1 (stereo not given) | inconclusive: 27.3 µM [cytotoxic, single point] |  |
| CCCCC(O)(Cn1cncn1)c1ccc(Cl)cc1Cl (stereo not given) | inconclusive: 68.5 µM [cytotoxic, partial curve, poor fit] |  |
| C[N+](C)(C)Cc1ccccc1 | inconclusive: 27.3 µM [rising, single point] |  |
| OCCN(CCO)CCO | inconclusive: 27.3 µM [cytotoxic, single point] |  |
| NNC(=O)c1ccccc1 |  | inactive: -11.9% |
| CN=CNc1ccc(C)cc1C | inconclusive: 27.3 µM [cytotoxic, full curve, poor fit] |  |
| CCOc1cc(C(C)(C)C)ccc1C1COC(c2c(F)cccc2F)=N1 (stereo not given) | inconclusive: 46.7 µM [cytotoxic, single point] |  |

| Compound | Potency | activity change, negative = cytotoxicity |
| --- | --- | --- |
| CN(C)[C@@H]1C(=O)C(C(N)=O)=C(O)[C@@]2(O)C(=O)C3=C(O)c4c(O)ccc(Cl)c4[C@@](C)(O)[C@H]3C[C@@H]12 |  | inactive: 14.5% |
| OC(c1ccc(Cl)cc1)(c1ccc(Cl)cc1)c1cccnc1 | inconclusive: 0.486 µM [cytotoxic, single point] |  |
| O=C(OC1CCCCC1)c1ccccc1C(=O)OC1CCCCC1 | inconclusive: 36.2 µM [cytotoxic, partial curve, poor fit] |  |
| c1ccc2nc(N3CCNCC3)ccc2c1 | inconclusive: 11.9 µM [cytotoxic, single point] |  |
| O=[Se]=O | active: 17.1 µM |  |
| CCOC(=O)CBr |  | inactive: 0.984% |
| Brc1ccc(Oc2cc(Br)c(Br)cc2Br)c(Br)c1 | inconclusive: 30.6 µM [cytotoxic, full curve] and inconclusive: 43.6 µM [cytotoxic, partial curve, poor fit] |  |
| O=[N+]([O-])c1c2ccccc2cc2ccccc12 | inconclusive: 15.4 µM [cytotoxic, single point] |  |
| CC(=O)[O-].CC(=O)[O-].[Co+2] | inconclusive: 0.0015 µM [rising, full curve, poor fit] |  |
| O=C(O)c1cc(Cl)ccc1Cl | inconclusive: 27.2 µM [partial curve, poor fit] |  |
| C/C=C/c1ccc2c(c1)OCO2 | inconclusive: 2.17 µM [cytotoxic, single point] |  |
| C[C@]12CCC(=O)C=C1CC[C@@H]1[C@@H]2CC[C@@]2(C)[C@H]1CC[C@]2(C)O | inconclusive: 0.549 µM [cytotoxic, single point] |  |
| CCC[CH2][Sn]([CH2]CCC)([CH2]CCC)[CH2]CCC | inconclusive: 61.1 µM [cytotoxic] |  |
| CCOP(=S)(OCC)Oc1cnc2ccccc2n1 | inactive |  |
| CCCCCCCCn1sccc1=O | active: 43.4 µM and inconclusive: 40.4 µM [cytotoxic, partial curve] |  |
| CNC(=O)Oc1c(C(C)(C)C)cc(C)cc1C(C)(C)C |  | inactive: -0.15% |
| Nc1ccc(N=Nc2ccccc2)cc1 |  | inactive: 10.9% |

Single values from the entries so far:
Value for COP(N)(=S)Oc1ccccc1C(=O)OC(C)C (stereo not given) under Potency: inconclusive: 27.3 µM [cytotoxic, single point]
Value for CCOP(=S)(OCC)Oc1cnc2ccccc2n1 under Potency: inactive
Value for NC(=O)O under Potency: inconclusive: 0.545 µM [cytotoxic, single point]
